Measured data: PubChem BioAssay AID1508588 (Peter MacCallum Cancer Centre, 2020)

Assay: 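Knock-downs boosting vemurafenib effects on melanoma cell growth or lactate release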 (primary screen)
Cell system: human WM266.4 melanoma cells (BRAF V600 mutant)
Reagents: siRNA pool against human genes, 40 nM
Timing: 96 h from transfection to read-out
Treatment: vemurafenib 300 nM (about IC25), added 48 h after transfection, for 48 h; comparison arm got DMSO vehicle only
Measured: 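Ratios to non-targeting siRNA for cell gain, counted as DAPI nuclei after minus before drug and averaged over two replicates, and for absorbance-read medium lactate per cell; both binned into fold-change classes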
Direction: cell gain with vemurafenib: higher = more cell gain than with non-targeting siRNA; lactate per cell with vemurafenib: higher = more lactate made per cell
Call rule: 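a knock-down counts as enhancing when its fold-change classes with vehicle and with vemurafenib, taken together, show a stronger drug effect on cell gain or lactate per cell; exact class pairs not stated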
Calls: active = enhances vemurafenib effect; inactive = no enhancement seen
In all, the deposit lists about 18,000 reagents; shown is a part drawn at random. In the full data, 790 (4.4%) are marked active. 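Calls rest on a combination of fold-change classes in drug and vehicle arms, not all shown here.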 A number with no mark means an inactive call. Reagents against one gene are numbered here. Reagent sequences are not shown.

gene symbol	reagent	cell gain with vemurafenib	lactate per cell with vemurafenib
UBE2F	1	-0.02	3.59
SUSD2	1	0.28	2.44
NRARP	1	0.72	0.47
CENPH	1	0.4	1.29
MTMR9	1	0.63	1.32
SLC22A23	1	1.14	0.65
RBM10	1	0.19 (active)	0.14
GALNS	1	0.42	1.95
RHOBTB3	1	0.38	1.19
TCIRG1	1	0.08	0.76
SLPI	1	0.86	0.72
RGS14	1	0.4	0.52
POLR1F	1	0.63	1.47
CCDC34	1	-0.02	0.64
ZNF609	1	0.38	0.8
USF2	1	1.03	0.45
SDR16C5	1	0.68	0.46
CTHRC1	1	0.55 (active)	0.18
CYP26B1	1	1.09	1.06
KCTD5	1	0.6	1.9
ZNF320	1	0.4	0.4
OR2M3	1	0.03	0.72
RNF212	1	0.58	1.17
MOCS2	1	0.68	1.13
TPP1	1	0.59	0.56
BTG2	1	0.85	1.03
CERS4	1	0.51 (active)	0.48
DSEL	1	0.24	1.04
CCDC7	1	0.78	1.53
CCDC7	2	0.52	1.34
TFG	1	0.71	1.11
HNRNPAB	1	0.66	1.19
CARMIL1	1	0.22	0.96
MAP4K5	1	0.73	1
RBP7	1	1.12	0.66
GPANK1	1	0.36	1.48
ERAP2	1	0.44	1.04
PRODH2	1	1.36	0.8
CYP27C1	1	0.53	0.82
TEKT3	1	0.76	0.54
H2AC18	1	0.37	1.47
HMX2	1	0.65	1.7
KRT10-AS1	1	0.57	0.8
SFRP1	1	0.5	1.44
FAM13C	1	0.63	2.44
TBKBP1	1	0.63	1.9
ENTPD4	1	0.78	1.48
PKIB	1	0.37	1.88
PCDHGA10	1	0.38	0.76
ZMIZ1	1	0.8	0.53
SLC38A3	1	0.2	0.12
HP	1	0.5	0.7
MYRFL	1	0.51	0.9
EXOSC6	1	0.21	1.37

Next part, starting with the last 5 of the part before.
gene symbol	reagent	cell gain with vemurafenib	lactate per cell with vemurafenib
ZMIZ1	1	0.8	0.53
SLC38A3	1	0.2	0.12
HP	1	0.5	0.7
MYRFL	1	0.51	0.9
EXOSC6	1	0.21	1.37
MED16	1	0.36	1.02
CCDC80	1	1.15	0.62
STOML3	1	0.73	1.15
SKI	1	0.83	2.04
GZF1	1	0.66	0.98
KALRN	1	0.69 (active)	0.56
EHMT1	1	1.01	0.72
TMOD1	1	0.15	0.28
LRRC4C	1	0.92	0.84
PACS1	1	0.58	1.43
KAZALD1	1	0.42	0.55
ASB9	1	1.08	0.74
APOL6	1	0.37	2.37
OC90	1	0.56	0.97
MAP7D2	1	0.7	0.86
WDR86	1	0.99	0.7
ENPP7	1	0.82	2.1
ATP6V1C1	1	0.26	0.2
LIN28B	1	0.84	1.09
ABRA	1	0.8	0.58
STAT1	1	0.95	0.76
HSH2D	1	0.6	0.84
ABCF1	1	0.67	0.24
GCSAML	1	0.82	0.7
ARFIP2	1	0.61	0.62
ZNF782	1	0.71	1.14
ARMC9	1	0.81	1.25
CLEC4G	1	0.54	1.11
HABP2	1	0.76	0.34
OR9G4	1	1.21	0.82
